Measured values taken from paper PMC5428041, “Dynamic equilibrium on DNA defines transcriptional regulation of a multidrug binding transcriptional repressor, LmrR” (Scientific Reports, 2017).
For at least one entry, the source does not settle the construct or the ends of the probe. For some assays here: Weaker means in comparison with the reference protein, sequence or condition of that experiment. For some assays here: At least one verdict was read from the data and is not stated in words by the source.

By UniProt entry, the sequences of proteins in these tests, tags left out. Where a name states a change or a piece, a line headed by the entry shows the natural chain unless it says otherwise.
UniProt A2RI36, entry or part of it: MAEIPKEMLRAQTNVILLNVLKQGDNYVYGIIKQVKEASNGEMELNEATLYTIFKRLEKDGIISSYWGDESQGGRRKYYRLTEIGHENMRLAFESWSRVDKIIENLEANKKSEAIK

How the values were obtained:
[1] = target: LmrR (Lactococcus lactis) (UniProt A2RI36); assay: NMR competition; settings: out-competed by the PadR-consensus operator (48 uM in the reference complex), 30 uM LmrR dimer; 10 mM NaPi pH 6.8, 100 mM NaCl, 25 C (ITC; same buffer for NMR); 5% DMSO in riboflavin titrations; recombinant protein; protein details: C-terminal His6
[2] = target: LmrR (Lactococcus lactis) (UniProt A2RI36); assay: ITC; settings: 10 mM NaPi pH 6.8, 100 mM NaCl, 25 C (ITC; same buffer for NMR), 5% DMSO in riboflavin titrations, recombinant protein, protein details: C-terminal His6
[3] = target: LmrR G85A (Lactococcus lactis) (UniProt A2RI36); assay: ITC?; settings: relative to wild type, value only in figure; 10 mM NaPi pH 6.8, 100 mM NaCl, 25 C (ITC; same buffer for NMR); 5% DMSO in riboflavin titrations; recombinant protein; protein details: C-terminal His6
[4] = target: LmrR L17A (Lactococcus lactis) (UniProt A2RI36); assay: ITC?; settings: relative to wild type, value only in figure; 10 mM NaPi pH 6.8, 100 mM NaCl, 25 C (ITC; same buffer for NMR); 5% DMSO in riboflavin titrations; recombinant protein; protein details: C-terminal His6

GCTTGTTTACTAAAAAAAATAATGTTATAATTATC (double strand) [-10/-35 lmrCD promoter 35 bp]
binding result [1]: binds more weakly

TACATAGTAATGTGAAGTATAATATACTTTGTT (double strand) [lmrR operator 33 bp]
binding result ([2]; value only in figure): binds

CAATTTAATGTAAAGTAGTTTACATTATTTAAC (double strand) [lmrCD operator 33 bp]
Kd ([2]; 10 uM riboflavin): 220 nM
binding result [3]: binds more weakly
binding result [4]: binds more weakly
